Measurements taken from paper PMC2892021.

Experiments:
Test in all cases: pull-down; GST-DH, GST-PH and GST-DHPH as bait; each SH3 domain individually and all five SH3 domains together, in trans
[1] = molecular target: T1, GST-DH (intersectin-1L DH domain fused to GST) (mouse) (UniProt Q9Z0R4)
T1 sequence: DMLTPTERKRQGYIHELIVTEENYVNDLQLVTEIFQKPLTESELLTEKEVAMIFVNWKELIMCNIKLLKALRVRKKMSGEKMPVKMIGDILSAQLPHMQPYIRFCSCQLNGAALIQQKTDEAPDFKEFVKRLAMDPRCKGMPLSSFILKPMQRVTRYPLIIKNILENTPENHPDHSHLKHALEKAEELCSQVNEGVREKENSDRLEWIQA

[2] = molecular target: T2, GST-PH (intersectin-1L PH domain fused to GST) (mouse) (UniProt Q9Z0R4)
T2 sequence: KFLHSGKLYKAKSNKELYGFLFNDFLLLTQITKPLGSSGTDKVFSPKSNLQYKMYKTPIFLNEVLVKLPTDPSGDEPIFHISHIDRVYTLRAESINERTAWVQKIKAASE

[3] = molecular target: T3, GST-DHPH (intersectin-1L DH-PH domain fragment fused to GST) (mouse) (UniProt Q9Z0R4)
T3 sequence: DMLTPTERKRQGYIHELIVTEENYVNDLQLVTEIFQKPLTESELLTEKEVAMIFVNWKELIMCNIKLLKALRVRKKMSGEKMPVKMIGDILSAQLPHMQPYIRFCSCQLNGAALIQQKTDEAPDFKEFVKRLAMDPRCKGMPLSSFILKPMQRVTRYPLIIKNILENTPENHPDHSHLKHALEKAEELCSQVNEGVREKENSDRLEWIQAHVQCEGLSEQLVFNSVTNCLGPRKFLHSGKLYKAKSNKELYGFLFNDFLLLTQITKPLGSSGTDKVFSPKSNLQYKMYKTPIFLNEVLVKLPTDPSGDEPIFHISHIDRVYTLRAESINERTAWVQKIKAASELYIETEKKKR

Substance: intersectin-1L SH3(A) domain (mouse) (domain or fragment)
- binding [1]: no binding
- binding [2]: no binding
- binding [3]: no binding

Substance: intersectin-1L SH3(E) domain (mouse) (domain or fragment)
- binding [1]: no binding
- binding [2]: no binding

Substance: intersectin-1L SH3(B) domain (mouse) (domain or fragment)
- binding [1]: no binding
- binding [2]: no binding
- binding [3]: no binding

Substance: intersectin-1L SH3(C) domain (mouse) (domain or fragment)
- binding [1]: no binding
- binding [2]: no binding
- binding [3]: no binding

Substance: intersectin-1L SH3(D) domain (mouse) (domain or fragment)
- binding [1]: no binding
- binding [2]: no binding
- binding [3]: no binding

Substance: intersectin-1L SH3(ABCDE) fragment (all five SH3 domains together) (mouse) (domain or fragment)
- binding [1]: no binding
- binding [2]: no binding

These are yes or no findings as the source states them, for the method shown. In cells and extracts the contact can be indirect. Tags and fused reporters may be left off the sequences shown.
